{"source": "paper PMC2730530", "binders": {"B1": {"name": "RalBP1 (endogenous, rat) (protein, UniProt Q62796 1-647)", "chain": "MTECFLPPTSSPSEHRRAEHGSGLTRTPSSEEISPTKFPELYRTGEPSPPHDILHEPPDIVSDDEKDHGKKKGKFKKKEKRTEGYVAFQEDSSGDEAESPSKMKRSKGIHVFKKPSFSKKKEKDFKIKEKPKEEKHKEEKHKEEKHKEKKCKDFTAADVVKQWKEKKKKKKPTQEPEVPQTDAPSLRPIFGAPFADAVERTMMYDGIRLPAVFRECVDYMEKHGMKCEGIYRVSGIKSKVDELKAAYDREESPNLEEYEPNTVASLLKQYLRDLPENLLTKELMPRFEEACGRTTEVEKVQEFQRLLRELPEYNHLLLSWLIVHMDHVIAKELETKMNIQNISIVLSPTVQISNRVLYVLFTHVQELFGTVLLKQVTRPLRWSNMATMPTLPETQAGIKEEIRRQEFLLNCLHRDLQGGIKDFSKEERLWEVQRILTALKRKLREAKRQECETKIAQEIASLSKEDVSKEETNENEEVINILLAQENEILTEQEELLAMEQFLRRQIASEKEEIDRLRAEIAEIQSRQHGRSETEEYSSDSESESEDEEELQIILEDLQRQNEELEIKNNHLNQAVHEEREAIVELRVQLRLLQMLRAKSEQQLQEEEEPERRGGTGPLPCEGVLEVRAAKEQAKPSPSKDRKETPI"}}, "key": {"[1]": {"molecular_target": "POB1 (endogenous, rat) (rat (endogenous in rat brain))", "experiment": "co-IP; S2 fraction of adult rat brain immunoprecipitated and immunoblotted"}, "[2]": {"molecular_target": "POB1 (endogenous, rat) (rat (endogenous in rat brain))", "experiment": "co-IP; lysates of cultured neurons (>DIV 18), with or without NMDA treatment; immunoprecipitated with PSD-95 or POB1 antibodies and immunoblotted"}}, "note": "These are yes or no findings as the source states them, for the method shown. In cells and extracts the contact can be indirect. Binding can be weak; no strength is given."}
{"binder": "B1", "values": [{"measurement": "binding", "setting": "[1]", "value": "binds"}, {"measurement": "binding", "setting": "[2]", "value": "binds"}]}
